Consider 1 substance from paper PMC12748884.

Amino acid sequences for entries named in this document (tags omitted).
UniProt Q13526: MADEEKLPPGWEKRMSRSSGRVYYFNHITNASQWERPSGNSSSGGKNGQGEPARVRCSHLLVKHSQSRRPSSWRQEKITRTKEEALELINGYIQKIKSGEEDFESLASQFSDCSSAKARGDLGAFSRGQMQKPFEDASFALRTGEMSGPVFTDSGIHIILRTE
UniProt P35222: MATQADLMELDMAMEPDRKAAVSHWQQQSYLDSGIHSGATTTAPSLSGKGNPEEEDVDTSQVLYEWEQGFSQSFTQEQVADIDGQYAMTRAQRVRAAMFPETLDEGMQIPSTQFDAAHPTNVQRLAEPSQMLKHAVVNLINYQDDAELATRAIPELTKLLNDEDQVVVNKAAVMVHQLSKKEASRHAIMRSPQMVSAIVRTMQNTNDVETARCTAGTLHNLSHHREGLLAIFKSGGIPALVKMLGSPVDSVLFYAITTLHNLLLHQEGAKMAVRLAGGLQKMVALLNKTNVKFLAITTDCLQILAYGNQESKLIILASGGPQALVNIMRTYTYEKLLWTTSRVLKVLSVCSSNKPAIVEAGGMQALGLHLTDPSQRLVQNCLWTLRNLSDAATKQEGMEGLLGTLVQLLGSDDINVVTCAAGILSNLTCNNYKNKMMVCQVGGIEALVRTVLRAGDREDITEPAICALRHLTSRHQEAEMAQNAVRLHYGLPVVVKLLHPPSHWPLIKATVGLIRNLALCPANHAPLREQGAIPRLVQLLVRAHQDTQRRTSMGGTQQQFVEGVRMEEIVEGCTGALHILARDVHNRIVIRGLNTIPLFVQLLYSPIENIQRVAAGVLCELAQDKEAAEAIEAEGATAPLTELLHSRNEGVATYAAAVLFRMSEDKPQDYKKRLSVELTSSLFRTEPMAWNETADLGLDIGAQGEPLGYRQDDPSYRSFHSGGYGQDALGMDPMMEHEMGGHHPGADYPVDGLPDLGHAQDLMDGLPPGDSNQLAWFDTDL

The target in this assay is Peptidyl-prolyl cis/trans isomerase (PPIase) NIMA-interacting 1 (Pin1) (human (endogenous in MRC-5)) (UniProt Q13526). The assay is described as follows: co-IP; lysates of MRC-5 cells, mock-transfected or transfected with the LMP1 construct (harvested 3 days post-transfection); immunoprecipitated with Pin1 antibodies, immunoblotted with β-catenin antibodies; species- and isotype-matched control IgG in parallel. In general terms: In western blotting, separated proteins are transferred to a membrane and probed.

No constants are given. Whether binding was seen depends on the method and setting. In cells and extracts the contact can be indirect. Some results given as binding are weak or reduced against the parent protein; the word gives no strength.

On to β-catenin (from UniProt P35222 1-781), for which the binding entry was “binds”.
